Some of the results follow. Shown are side measurements of this screen, not its main read-out; they come without a call. Most of these compounds were active or inconclusive in the main read-out, so they are no random draw. Words in brackets tell the shape of the fitted curve; partial curves, single points and poor fits give uncertain potencies.

This assay is described as follows: qHTS Assay for Lipid Storage Modulators in Drosophila S3 Cells.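 On cell number change: cells counted by Cell Tracker Red CMTPX staining in the red channel.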 The settings on record: BODIPY lipid droplet fluorescence, 18-24 h; for cell number change: measured here: cell count max response, cells fed with added oleic acid. The method, boiled down: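 Drosophila S3 cells got compounds at several concentrations plus oleic acid (400 uM solution). Laser-scanning cytometry with 488 nm excitation read lipid droplets at 500-530 nm and cells at 575-640 nm. Percent activity was relative to 20 uM Triacsin C.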
On the technique in general: Quantitative high-throughput screening tests each substance at several concentrations.

The mark [1] stands for this setting: measured here: cell number channel AC50, cells fed with added oleic acid.
The mark [2] stands for this setting: measured here: lipid fluorescence (Fed channel) AC50, cells fed with added oleic acid.

What is called AC50 is the concentration at which the activity in the assay is half-maximal. Read a high AC50 as activity only at high concentration. As for `CC1CCCC(C)N1/N=C/c1cccc([N+](=O)[O-])c1` (stereo not drawn), the cell number change is 34.4%. Besides, under setting [1], the AC50 was 5.17 µM [rising, partial curve, poor fit]. Also, the AC50 under setting [2] is 0.146 µM [falling, full curve, poor fit]. For `COc1cc(CNc2ccccc2)c([N+](=O)[O-])cc1OC`, the cell number change was -2.93%. Under setting [2], the AC50 was 29.1 µM [falling, single point].

As to `COCCN(C(=O)COC(=O)c1cccc2ccccc12)c1c(N)n(Cc2ccccc2)c(=O)[nH]c1=O`, the cell number change was -8.01%. Further, the AC50 under setting [1] was 3.66 µM [falling, partial curve, poor fit]. On to `CCOCCCN(C(=O)CCC(=O)Nc1cc(C)on1)C(C(=O)NC(C)(C)CC)c1cccc(OC)c1OC` (stereo not drawn), for which the cell number change was -5.42%. Still for that read-out and setting: to `COc1ccccc1-n1cc(CN2CCCC(CO)(Cc3cccc(Cl)c3)C2)cn1` (stereo not drawn) belongs 2.19%. Consider `O=C(OCC(=O)N1CCC(Cc2ccccc2)CC1)c1ccc(CO)cc1`, for which the cell number change is -46.7%. Also, under setting [1], the AC50 is 29.1 µM [falling, single point]. Under setting [2], the AC50 was 0.00517 µM [falling, full curve, poor fit]. For `CCCCn1c(N)c(N(CC(C)C)C(=O)CCNC(=O)c2ccc([N+](=O)[O-])cc2)c(=O)[nH]c1=O`, the cell number change came out at 151%. For the same compound, under setting [1], the AC50 was 23.1 µM [rising, partial curve].

With `CCN(CCN1CCCC1)C(=O)C1CCC(=O)N(CCCN2CCOCC2)C1` (stereo not drawn), the cell number change was -11.8%. Also, under setting [2], the AC50 was 35.5 µM [falling, single point]. Consider `CCOC(=O)NCc1ccc(CNC(=O)OCC)cc1`, for which the cell number change was 7.55%. On to `CC1=CC(C)C2C(=O)N(c3ccccc3)C(=O)C2C1` (stereo not drawn), for which the cell number change is -2.45%. The AC50 under setting [2] was 3.66 µM [falling, full curve]. Regarding `Cn1c(CCn2ccccc2=O)nc2cc(NC(=O)COc3ccccc3)ccc21`, the cell number change was -7.93%. For the same compound, the AC50 under setting [2] is 3.66 µM [rising, full curve]. In the case of `COc1cccc(-c2cc(=O)c3cc(NC(=O)c4ccc(Cl)cc4)ccc3[nH]2)c1`, the cell number change came to 14.6%. Under setting [2], the AC50 was 6.51 µM [rising, partial curve]. Consider `CCOC(=O)c1oc2ccccc2c1CN1CCOCC1`, for which, under setting [2], the AC50 was 16.4 µM [rising, single point].

As for `O=C(COc1ccc(Br)cc1)Nc1ccc2oc(=O)ccc2c1`, the cell number change was 6.65%. Moreover, the AC50 under setting [2] is 0.82 µM [rising, full curve, poor fit].

`COc1ccc(-c2noc(CN(C)C(=O)c3ccc4c(c3)OCO4)n2)cc1OC`: the cell number change is 19.2%. For `CCOC(=O)c1cc(-c2ccc(Cl)s2)[nH]n1`, the cell number change was -27.6%. For the same compound, under setting [2], the AC50 was 13 µM [falling, single point]. For `COc1ccc([N+](=O)[O-])cc1NC(=O)Cc1ccc(C)cc1`, the cell number change amounted to 31.8%. The AC50 under setting [1] was 0.326 µM [rising, full curve, poor fit]. Moreover, the AC50 under setting [2] is 1.46 µM [rising, full curve, poor fit].

On to `O=S(=O)(Nc1ccc(S(=O)(=O)Nc2nccs2)cc1)c1ccc2c(c1)OCCO2`, for which the cell number change was found to be 5.6%. The AC50 under setting [2] was 20.6 µM [falling, partial curve].

Turning to `Cc1nc2ccccc2n1CC(=O)NC1CCCCCC1`, the cell number change was -39.2%. In addition, the AC50 under setting [1] was 14.6 µM [falling, single point]. In addition, the AC50 under setting [2] is 16.4 µM [falling, partial curve]. On to `O=C(NCC(c1cccs1)N1CCOCC1)c1cc(Cl)ccc1[N+](=O)[O-]` (stereo not drawn), for which the cell number change is -19%. Further, the AC50 under setting [2] was 6.51 µM [falling, single point]. For the compound `O=C(CNC(=O)/C(=C\c1ccccc1)NC(=O)c1ccc(Br)cc1)OCc1ccccc1`, the cell number change was found to be 26.8%. The concentration at half-maximal activity (AC50) under setting [2] was 6.51 µM [rising, single point]. For the compound `CC(NCc1ccc(OCc2ccc(Cl)cc2)cc1)C(O)c1ccccc1` (stereo not drawn), the cell number change was -28.4%. Take `O=C(Nc1ccc(OC(F)F)c(Cl)c1)c1cccc(OC(F)F)c1`: the cell number change was -7.34%. In addition, under setting [2], the AC50 was 6.51 µM [rising, single point]. Consider `Cc1nc2ncnn2c(Nc2ccc3c(c2)OCO3)c1Cc1ccccc1`, for which the cell number change was -7.66%.

`CC(Oc1cccc(F)c1)c1ccnc2nc(/N=C/N(C)C)nn12` (stereo not drawn): the cell number change was -36.3%. For the same compound, the AC50 under setting [1] was 0.058 µM [falling, full curve, poor fit]. Moreover, the AC50 under setting [2] was 0.92 µM [falling, partial curve].

With `CCOc1ccc(CNc2ccc3c(c2)ncn3C)cc1`, the cell number change was -16.9%.

With `CC1CCN(C(=O)c2[nH]cnc2C(=O)Nc2nccs2)CC1`, the cell number change is -28.6%. Also, the AC50 under setting [1] was 0.461 µM [falling, full curve, poor fit]. Further, under setting [2], the AC50 is 0.731 µM [falling, full curve, poor fit]. For `N#Cc1ccsc1NC(=O)CN1CCN(S(=O)(=O)c2ccc3ccccc3c2)CC1`, the AC50 under setting [1] is 4.11 µM [rising, single point]. As to `CCOc1cc(/C=N/NC(=O)CN(CCc2ccccc2)S(=O)(=O)c2ccc(NC(C)=O)cc2)ccc1O`, the cell number change was -1.13%. On to `COc1ccc(-c2oc3ncnc(NCCCN(C)C)c3c2-c2ccc(OC)cc2)cc1`, for which the cell number change is -38.3%. The AC50 under setting [1] was 29.1 µM [falling, single point]. Besides, under setting [2], the AC50 is 32.6 µM [falling, single point].

For the compound `O=C(c1ccco1)N1CCN(C(=O)c2cc3sccc3n2Cc2ccccc2)CC1`, the cell number change was -1.12%.

As to `CCN1C(=O)c2cccc3c(NC(=O)c4cccc(N5C(=O)CCC5=O)c4)ccc1c23`, the cell number change is -77.3%. Also, the AC50 under setting [1] was 29.1 µM [falling, single point]. Take `COCCN(CC(=O)NC1CCCCC1)C(=O)CSc1nc2ccccc2o1`: the cell number change was determined as 141%. Also, the AC50 under setting [1] is 29.1 µM [rising, single point]. Regarding `CCc1cccc(CC)c1-n1c(SCC(=O)N2CCc3ccccc3C2)nnc1-c1cccnc1`, under setting [2], the AC50 is 18.4 µM [falling, partial curve]. In the case of `COc1ccc([N+](=O)[O-])cc1NC(=O)c1cn(-c2ccc(C)c(C)c2)c(=O)c2ccccc12`, the cell number change worked out at 1.96%. Turning to `CC1CCCCN1CC(=O)Nc1ccc2c(c1)OC(F)(F)O2` (stereo not drawn), the cell number change is -5.74%. Further, the AC50 under setting [1] was 0.58 µM [falling, single point]. `Cc1ccc(N=C2NC(=O)C(CC(=O)NCc3ccccc3)S2)cc1C` (stereo not drawn): the AC50 under setting [2] was 6.51 µM [rising, single point]. For `CCOC(=O)CSc1nc(N)c(C#N)c(-c2ccc(OCC)cc2)c1C#N`, the cell number change came to 5.44%.

For `CN(Cc1ccc(Cl)c(Cl)c1)C(=O)c1ccccc1SCC(=O)N1CCCC1`, the cell number change was -50%. Also, the AC50 under setting [1] is 29.1 µM [falling, single point]. In addition, the AC50 under setting [2] was 0.411 µM [falling, single point]. As for `CCCNC(=O)C(Cc1ccc(I)cc1)NC(=O)C1CC1` (stereo not drawn), the cell number change is -19.4%. In addition, the AC50 under setting [1] is 1.16 µM [rising, single point]. As for `CCCC(=O)Nc1nnc(-c2ccc(Cl)s2)o1`, the cell number change is -14.7%. For the same compound, under setting [2], the AC50 is 0.00517 µM [rising, full curve, poor fit]. In the case of `O=C(NCCCN1CCOCC1)c1cccc(S(=O)(=O)NCc2ccccc2)c1`, under setting [1], the AC50 is 0.146 µM [rising, full curve]. As to `COC(/C=C/Nc1ccc(Br)cc1)=C(C#N)C#N`, the cell number change was -12.4%. The AC50 under setting [1] is 0.731 µM [falling, partial curve]. Also, under setting [2], the AC50 is 0.116 µM [falling, full curve, poor fit].

As for `CNC(=S)NCCC(c1ccccc1)c1ccccc1`, the cell number change is -83.3%. Besides, the AC50 under setting [1] is 29.1 µM [falling, single point]. Take `CCC(CC)c1nnc(NC(=O)c2ccc([N+](=O)[O-])cc2)s1`: the cell number change is -33.3%. Further, under setting [1], the AC50 is 5.8 µM [falling, full curve]. For the same compound, the half-maximal activity concentration (AC50) under setting [2] was 1.64 µM [falling, full curve]. As to `Cc1cc(NC(=O)COC(=O)C2CC(=O)N(c3ccc(Br)cc3)C2)no1` (stereo not drawn), the cell number change was 0.427%. Moreover, the AC50 under setting [2] was 5.17 µM [falling, partial curve, poor fit]. In the case of `O=C(O)CC(c1cccc2ccccc12)N1Cc2ccccc2C1=O` (stereo not drawn), the cell number change is -9.04%. Further, the AC50 under setting [2] was 6.51 µM [falling, single point]. As to `CCOC(=O)CSc1ncc(OC)c(Sc2ccc(OC)cc2)n1`, the cell number change is 20.2%. The AC50 under setting [2] is 29.1 µM [rising, single point]. `CC1=Nc2ccc3ccccc3c2C1(C)C`: the AC50 under setting [1] was 0.103 µM [rising, full curve, poor fit]. Turning to `CCN(CC)CCNC(=O)c1ccc(NC(=O)Nc2cccc3ccccc23)cc1`, the cell number change stood at 5.88%. In addition, the AC50 under setting [1] was 0.146 µM [rising, full curve, poor fit]. Further, the AC50 under setting [2] was 29.1 µM [rising, partial curve]. Regarding `CCN(CC)c1ccc(NS(=O)(=O)c2ccc(-c3ccc(=O)[nH]n3)o2)c(C)c1`, the cell number change is -10%. The AC50 under setting [2] was 29.1 µM [falling, single point].

Consider `O=C(O)C1CCN(C(=O)c2ccccc2Cl)CC1`, for which, under setting [2], the concentration at half-maximal activity (AC50) was 8.2 µM [falling, single point]. `COc1ccccc1N1CCN(C(c2ccc(N(C)C)cc2)c2nnnn2CCc2ccccc2)CC1` (stereo not drawn): the cell number change was -28.1%. The AC50 under setting [2] was 25.9 µM [falling, partial curve, poor fit]. Take `COC(C[C@H]1O[C@@H]1[C@@H](O)[C@H](C)OCc1ccccc1)OC`: under setting [2], the AC50 is 6.51 µM [rising, partial curve].

Take `CCn1c(CC(=O)Nc2ccc(C)cc2)n[nH]c1=S`: the cell number change was -6.4%.

In the case of `Cc1ccc(C)c(S(=O)(=O)C(C#N)c2nc3ccccc3nc2N2CCCC2)c1` (stereo not drawn), the cell number change was -8.56%. With `O=[N+]([O-])c1ccc(Cl)c(S(=O)(=O)N2CCCCCC2)c1`, the cell number change was -22.1%. Further, under setting [2], the AC50 was 0.58 µM [falling, partial curve, poor fit]. On to `Cc1cnn(-c2ccc3nnc(-c4ccc(Cl)cc4)n3n2)c1`, for which the cell number change is -13.5%. Consider `CCn1nnc2cc(C(=O)Nc3cccc(S(=O)(=O)N(C)C)c3)ccc21`, for which the cell number change was 12.3%. Further, under setting [2], the AC50 is 32.6 µM [falling, single point]. As for `COC(=O)c1ccccc1NC(=O)C1CCCN(S(=O)(=O)c2ccc(OC)cc2)C1` (stereo not drawn), the cell number change stood at 4.67%.

As for `CCOc1c(Cl)cc(CNc2nnnn2C)cc1OC`, the cell number change is 1.84%. The AC50 under setting [2] is 18.4 µM [rising, single point]. As for `CC(=O)N(C)c1ccc(NS(=O)(=O)c2cc(Cl)ccc2Cl)cc1`, the cell number change is -27.4%. Also, the AC50 under setting [1] was 2.31 µM [falling, full curve, poor fit]. Also, the AC50 under setting [2] is 2.06 µM [falling, full curve, poor fit].

The values are drawn from PubChem BioAssay AID2685 (National Center for Advancing Translational Sciences (NCATS), 2010).
